The assay is described as follows: qHTS Assay to Find Inhibitors of Chronic Active B-Cell Receptor Signaling. To be noted: ABC-DLBCL IkBa-CBG/CBR reporter, luminescence ratio (green luciferase fused to IkBa over red control in TMD8 lymphoma cells), 4 h. The procedure, abridged: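 Concentration-response series (up to 46 uM) were applied to TMD8 dual-reporter cells for 4 h at 37C with doxycycline. Green/red ratio, after filter-overlap correction, defined %Activity; red signal alone was normalised to basal cells and zero luminescence.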
On the technique in general: Quantitative high-throughput screening tests each substance at several concentrations.

[1] abbreviates: measured here: CBR red luminescence, cell number.
[2] abbreviates: measured here: IkBa-CBG green luminescence.

One may read the AC50 as the concentration giving half of the maximal activity seen.

SMILES strings stand for the structures. Some of the results follow. Shown are side measurements of this screen, not its main read-out; they come without a call. The list favours compounds with an active or inconclusive main result. Potencies come from curve fits of mixed quality, noted in brackets.

In the case of `OCCN1CCN(CC(O)COc2ccc(C34CC5CC(CC(C5)C3)C4)cc2)CC1` (stereo unspecified), the AC50 under setting [1] was 12.6 µM [falling, single point].
As for `Cn1c(=O)n(C)c2cc(NS(=O)(=O)c3ccc(C(C)(C)C)cc3)ccc21`, under setting [1], the AC50 is 14.1 µM [rising, partial curve, poor fit].
The same measure, in the same setting: the same measure for `CC(C)C(=O)N(c1cc2sc(=O)oc2c2ccccc12)S(=O)(=O)c1cccs1`: 29.1 µM [falling, partial curve, poor fit]; for `COc1ccc(NC2=C(NC(C)=O)C(=O)c3ccccc3C2=O)cc1`: 31.6 µM [rising, partial curve, poor fit].
As to `O=C(OCc1ccccn1)c1ccc(COc2ccc3ccccc3c2)o1`, under setting [1], the AC50 was 11.2 µM [falling, partial curve].
For the compound `O=C(Oc1ccc(N(C(=O)c2ccncc2)S(=O)(=O)c2ccc(F)cc2)cc1)c1ccncc1`, the AC50 under setting [1] is 5.01 µM [falling, partial curve, poor fit].
The same measure, in the same setting: the same measure for `Cc1nc(NC2CCCC2)sc1C(=O)N(C)C`: 6.51 µM [rising, single point].
Turning to `Cc1ccc2nc(NCc3ccccc3)[nH]c2c1`, the AC50 under setting [1] was 3.98 µM [rising, partial curve, poor fit] and the AC50 under setting [2] was 22.4 µM [falling, single point].
Regarding `Cc1ccc(S(=O)(=O)N(C)c2ccc(C(=O)N3CCCCC3)cc2)cc1`, the AC50 under setting [1] is 29.1 µM [rising, single point].
Turning to `COc1ccc(-c2nonc2NC(=O)c2oc3ccccc3c2C)cc1OC`, under setting [1], the AC50 is 0.708 µM [rising, full curve].
Same read-out and setting: the same measure for `COc1ccc(S(=O)(=O)Cc2ccccc2)cc1N`: 15.8 µM [rising, partial curve, poor fit].
Still for that read-out and setting: the same measure for `CCCCOc1c(Br)cc(CNCCCN2CCOCC2)cc1OC`: 35.5 µM [falling, single point]; for `COc1cc(OC)c2c(c1)OC(=O)CC2c1ccc2c(c1)OCO2` (stereo unspecified): 32.6 µM [rising, partial curve, poor fit]; for `CCOc1ccc(NC(=O)C2CCCN(S(=O)(=O)c3cnc[nH]3)C2)cc1` (stereo unspecified): 11.2 µM [falling, partial curve, poor fit].
Still for that read-out and setting: the same measure for `C(=N\Nc1ccc2ccccc2n1)/c1ccc2c(c1)OCCO2`: 7.94 µM [falling, partial curve]; for `Cc1[nH][nH]c(=O)c1C(c1ccc(-c2ccccc2C(=O)O)o1)c1c(C)[nH][nH]c1=O`: 14.1 µM [rising, single point]; for `Cc1ccc(S(=O)(=O)/C(C#N)=C/c2c(N3CC(C)OC(C)C3)nc3c(C)cccn3c2=O)cc1` (stereo unspecified): 16.4 µM [falling, partial curve, poor fit].
Turning to `O=C(COc1cccc(Oc2ccccc2)c1)Nc1ccc(SC(F)F)cc1`, the AC50 under setting [1] is 6.51 µM [falling, partial curve, poor fit].
On the same count and under the same terms, the same measure for `O=C(NCCCN1CCCC1=O)c1ccc2c(c1)ncn2C1CCCCC1`: 8.2 µM [rising, partial curve, poor fit]; for `COc1ccc(Cn2c(-c3ccco3)nc3oc4cc(OC)ccc4c(=O)c3c2=O)cc1`: 3.55 µM [falling, full curve]; for `Cc1ccc(-c2nc(-c3ccncc3)no2)cc1Cl`: 0.398 µM [rising, full curve, poor fit].
Turning to `CSc1c(-c2ccccn2)c(N)nn1C(=O)C1CC1`, the AC50 under setting [1] was 12.6 µM [rising, single point].
Same read-out and setting: the same measure for `COc1ccc2c(C)cc(SCC(=O)N3CCOCC3)nc2c1`: 0.0891 µM [rising, full curve, poor fit].
In the case of `O=C(Nc1nnc(Cc2ccc(Cl)cc2)s1)c1ccncc1`, the AC50 under setting [1] was 12.6 µM [rising, single point].
For the compound `N#Cc1cn(Cc2ccccc2)c2ccccc12`, the AC50 is, setting by setting: under setting [1], 3.26 µM [rising, full curve, poor fit]; under setting [2], 5.8 µM [falling, partial curve, poor fit].
For the compound `CNC(=O)C1CCN(C(=O)c2ccc(-c3ccccc3)cc2)CC1`, under setting [1], the concentration at half-maximal activity (AC50) was 0.82 µM [falling, full curve, poor fit].
Still for that read-out and setting: the same measure for `Cc1cccc(C)c1NC(=O)COC(=O)CCc1ccc(S(=O)(=O)N2CCCCC2)cc1`: 14.6 µM [falling, partial curve].
Turning to `CSc1nnc(NC(=O)c2ccc3c(c2)OCO3)s1`, under setting [1], the AC50 is 1.58 µM [falling, full curve, poor fit].
With `Cn1c(-c2ccco2)nc2cc3ccccc3cc21`, the half-maximal activity concentration (AC50) under setting [1] is 12.6 µM [falling, single point].
Same read-out and setting: the same measure for `COc1ccc(-c2nc(CSCC(=O)NCCC3=CCCCC3)c(C)o2)cc1OC`: 16.4 µM [rising, single point]; for `O=C(O)c1ccccc1C(=O)NNc1ccc(Cl)cc1`: 11.2 µM [rising, partial curve, poor fit].
As for `CC(=O)NS(=O)(=O)c1ccc(NC(=O)c2cc(-c3ccc(C)c(C)c3)nc3ccccc23)cc1`, the AC50 under setting [2] was 3.98 µM [rising, full curve, poor fit].
As to `CC(=O)C1=C(C)NC(SCSc2ccccc2)=C(C#N)C1c1cccnc1` (stereo unspecified), the concentration at half-maximal activity (AC50) under setting [1] was 20.6 µM [falling, partial curve, poor fit].
With `COc1ccc(C2NC(=O)NC3=C2CCc2ccccc23)cc1` (stereo unspecified), the half-maximal activity concentration (AC50) under setting [1] is 8.91 µM [rising, partial curve].
Still for that read-out and setting: the same measure for `Cc1cc(S(=O)(=O)N2CCN=C2c2ccccc2)ccc1F`: 29.1 µM [rising, single point].
Same read-out and setting: the same measure for `COc1ccc(NC(=O)CCN2C(=O)c3ccccc3S2(=O)=O)c(OC)c1`: 35.5 µM [rising, single point].
Consider `O=C(N/N=C/c1ccc(Br)s1)c1ccccc1[N+](=O)[O-]`, for which the AC50 under setting [1] was 7.94 µM [falling, partial curve].
On the same count and under the same terms, the same measure for `CC(=O)Nc1sc(N/N=C\c2ccc(O)cc2)nc1-c1cccs1`: 35.5 µM [falling, single point].
The same measure, in the same setting: the same measure for `O=C(O)c1cccc(N/N=C/c2sc(N3CCOCC3)nc2-c2ccccc2)c1`: 13 µM [falling, partial curve].
Take `CC(C)(C)c1cc(CN2CCN(CCC#N)CC2)cc(C(C)(C)C)c1O`: the AC50 under setting [1] is 7.08 µM [falling, full curve, poor fit].
Take `COc1ccc(S(=O)(=O)N2CCOCC2)cc1NC(=O)c1ccncc1`: under setting [1], the AC50 is 2.91 µM [falling, full curve].
Same read-out and setting: the same measure for `CCc1sc(Nc2cccc(Cl)c2)nc1-c1cc2cccc(OC)c2oc1=O`: 22.4 µM [falling, single point]; for `O=C(Nc1ccc(Cl)cc1C(=O)Nc1ccncc1)c1ccco1`: 4.11 µM [falling, partial curve, poor fit].
Regarding `Cc1cc(CNC(=O)C(C)n2cc([N+](=O)[O-])cn2)c2ccccc2n1` (stereo unspecified), the AC50 runs as follows: under setting [1], 35.5 µM [rising, single point]; under setting [2], 25.1 µM [falling, single point].
Regarding `COCC(C)n1c(SCC(=O)Nc2sccc2C(N)=O)nc2ccccc2c1=O` (stereo unspecified), the AC50 under setting [1] is 18.4 µM [falling, single point].
Same read-out and setting: the same measure for `C=CCSc1nnc2c(n1)OC(c1ccco1)Nc1ccccc1-2` (stereo unspecified): 10.3 µM [falling, partial curve].
With `CCOC(=O)Nc1ccc(C(=O)/C=C/c2ccccc2)cc1`, the AC50 runs as follows: under setting [1], 35.5 µM [falling, single point]; under setting [2], 15.8 µM [rising, partial curve, poor fit].
Regarding `O=C(Nc1ccc2nc3n(c(=O)c2c1)CCCCC3)c1ccccc1[N+](=O)[O-]`, the AC50 under setting [1] was 7.94 µM [falling, partial curve].
Regarding `CN(C)CCCN(C(=O)c1ccc(C(=O)c2ccccc2)cc1)c1nc2cc3c(cc2s1)OCO3`, the AC50 under setting [1] is 22.4 µM [falling, partial curve, poor fit].
On the same count and under the same terms, the same measure for `COC(=O)c1ccc(OCC(=O)c2cccc(OC)c2)cc1`: 0.82 µM [falling, full curve, poor fit].
Turning to `C/C(CC(=O)Nc1cccnc1)=N\NC(=O)C(=O)Nc1cccc(C)c1`, the AC50 under setting [1] was 16.4 µM [falling, single point].
Still for that read-out and setting: the same measure for `CN(C(=O)c1c[nH]c2ccc(S(=O)(=O)Nc3cccc(C(F)(F)F)c3)cc2c1=O)C1CCCCC1`: 5.62 µM [falling, full curve, poor fit].
For the compound `COc1cccc2sc(NC(=O)c3ccc(S(=O)(=O)N4CCOCC4)cc3)nc12`, the AC50 under setting [1] is 7.31 µM [falling, partial curve] and the half-maximal activity concentration (AC50) under setting [2] is 2.31 µM [rising, partial curve, poor fit].
Turning to `O=C(Cn1c(=O)cnc2ccccc21)Nc1cc(Cl)ccc1N1CCOCC1`, under setting [1], the AC50 is 0.58 µM [rising, full curve, poor fit].
On to `COc1ccc(-c2noc(-c3cccc(Cl)c3)n2)cc1OC`, for which the AC50 under setting [1] was 14.6 µM [rising, partial curve, poor fit].
As to `O=C(C1=C[C@@H](c2csc3ccccc23)C[C@@H](OCCCCO)O1)N1CCN(Cc2ccc3c(c2)OCO3)CC1`, the concentration at half-maximal activity (AC50) under setting [1] is 10 µM [falling, partial curve, poor fit].
As to `Cc1ccc(OC(=O)c2sc(Cl)nc2C)cc1C`, under setting [2], the AC50 was 20.6 µM [rising, partial curve, poor fit].
In the case of `CCOc1ccc(N=CC2=C(O)CC(C)(C)CC2=O)cc1`, the AC50 under setting [1] was 11.2 µM [rising, partial curve, poor fit].
Turning to `CCOC(=O)C(Sc1nn(C)c(=S)s1)C(C)=O` (stereo unspecified), under setting [1], the AC50 is 29.1 µM [rising, single point].
As for `Cc1ccccc1C(=O)NC[C@@H]1CCCN2CCCC[C@H]12`, the AC50 under setting [1] was 8.91 µM [rising, partial curve].
Consider `CC(=O)Nc1ccc(Nc2nc(-c3sc(C)nc3C)cs2)cc1`, for which the AC50 under setting [1] is 17.8 µM [falling, single point].

(Values after PubChem BioAssay AID493014 (National Center for Advancing Translational Sciences (NCATS), 2011).)
